No constants are given. Whether binding was seen depends on the method and setting. In cells and extracts the contact can be indirect. These calls come from enrichment with a bait or labelling near it, and not all partners need be listed. For some assays here: A no says only that the protein was not detected with the bait. One block for each binder: values may come before it.
Experiments:
[1] = molecular target: Heterochromatin Protein 1β (mouse (endogenous in R1 ESCs and MEFs)) (UniProt P83917); experiment: affinity purification with mass spectrometry; endogenous HP1β immunoprecipitated (antibody 1MOD-1A9, Protein G-agarose) from the nuclear (S3 and P3) fractions of 10^8 MEFs; wash buffer 30 mM Tris-HCl pH 7.5, 0.2 mM EDTA, 0.5 mM dithiothreitol, 0.2 % Triton X-100, 150 mM NaCl; anti-GFP as negative control; LC-MS/MS; two biological replicates
[2] = molecular target: Heterochromatin Protein 1β (mouse (endogenous in R1 ESCs and MEFs)) (UniProt P83917); experiment: affinity purification with mass spectrometry; endogenous HP1β immunoprecipitated (antibody 1MOD-1A9, Protein G-agarose) from the nuclear (S3 and P3) fractions of 10^8 R1 ESCs; wash buffer 30 mM Tris-HCl pH 7.5, 0.2 mM EDTA, 0.5 mM dithiothreitol, 0.2 % Triton X-100, 150 mM NaCl; anti-GFP as negative control; LC-MS/MS; two biological replicates
[3] = molecular target: T1, Heterochromatin Protein 1β (mouse (endogenous in R1 ESCs and MEFs)), P83917; experiment: affinity purification with mass spectrometry; endogenous HP1β immunoprecipitated (antibody 1MOD-1A9, Protein G-agarose) from the nuclear (S3 and P3) fractions of 10^8 MEFs; wash buffer 30 mM Tris-HCl pH 7.5, 0.2 mM EDTA, 0.5 mM dithiothreitol, 0.2 % Triton X-100, 150 mM NaCl; anti-GFP as negative control; LC-MS/MS; two biological replicates; conditions: remark: other sources report otherwise
[4] = molecular target: T1, Heterochromatin Protein 1β (mouse …); experiment: affinity purification with mass spectrometry; endogenous HP1β immunoprecipitated (antibody 1MOD-1A9, Protein G-agarose) from the nuclear (S3 and P3) fractions of 10^8 R1 ESCs; wash buffer 30 mM Tris-HCl pH 7.5, 0.2 mM EDTA, 0.5 mM dithiothreitol, 0.2 % Triton X-100, 150 mM NaCl; anti-GFP as negative control; LC-MS/MS; two biological replicates; conditions: remark: other sources report otherwise

The chains behind the UniProt entries cited, without tags or fusion partners.
UniProt P83917: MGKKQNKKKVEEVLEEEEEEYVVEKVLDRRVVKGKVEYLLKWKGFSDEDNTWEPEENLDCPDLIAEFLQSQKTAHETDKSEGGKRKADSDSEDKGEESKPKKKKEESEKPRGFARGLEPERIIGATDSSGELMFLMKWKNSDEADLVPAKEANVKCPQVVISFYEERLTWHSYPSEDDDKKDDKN

B2: KAP1/TRIM28/TIF1β, Q62318 1-834 (protein)
chain: MAASAAATAAASAATAASAASGSPGSGEGSAGGEKRPAASSAAAASAAASSPAGGGGEAQELLEHCGVCRERLRPERDPRLLPCLHSACSACLGPATPAAANNSGDGGSAGDGAMVDCPVCKQQCYSKDIVENYFMRDSGSKASSDSQDANQCCTSCEDNAPATSYCVECSEPLCETCVEAHQRVKYTKDHTVRSTGPAKTRDGERTVYCNVHKHEPLVLFCESCDTLTCRDCQLNAHKDHQYQFLEDAVRNQRKLLASLVKRLGDKHATLQKNTKEVRSSIRQVSDVQKRVQVDVKMAILQIMKELNKRGRVLVNDAQKVTEGQQERLERQHWTMTKIQKHQEHILRFASWALESDNNTALLLSKKLIYFQLHRALKMIVDPVEPHGEMKFQWDLNAWTKSAEAFGKIVAERPGTNSTGPGPMAPPRAPGPLSKQGSGSSQPMEVQEGYGFGSDDPYSSAEPHVSGMKRSRSGEGEVSGLLRKVPRVSLERLDLDLTSDSQPPVFKVFPGSTTEDYNLIVIERGAAAAAAGQAGTVPPGAPGAPPLPGMAIVKEEETEAAIGAPPAAPEGPETKPVLMPLTEGPGAEGPRLASPSGSTSSGLEVVAPEVTSAPVSGPGILDDSATICRVCQKPGDLVMCNQCEFCFHLDCHLPALQDVPGEEWSCSLCHVLPDLKEEDGSLSLDGADSTGVVAKLSPANQRKCERVLLALFCHEPCRPLHQLATDSTFSMEQPGGTLDLTLIRARLQEKLSPPYSSPQEFAQDVGRMFKQFNKLTEDKADVQSIIGLQRFFETRMNDAFGDTKFSAVLVEPPPLNLPSAGLSSQELSGPGDGP
binding [3]: no binding
binding [4]: no binding

B4: Eif4enif1 (protein, UniProt Q9EST3 1-983)
chain: MEKSVAETENGDAFLELKKLPTSKSPHRYTKEELLDIKERPYSKQRPSCLSEKYDSDGVWDPEKWHASLYPASGRSSPVESLKKESESDRPSLVRRIADPRERVKEDDLDVVLSPQRRSFGGGCHVTAAVSSRRSGSPLEKDSDGLRLLGGRRIGSGRIISARAFEKDHRLSDKDLRDLRDRDRERDYKDKRFRREFGDSKRVFGERRRNDSYTEEEPEWFSAGPTSQSETIELTGFDDKILEEDHKGRKRTRRRTASVKEGIVECNGGVAEEDEVEVILAQEPSADQEVPRDVILPEQSPGEFDFNEFFNLDKVPCLASMIEDVLGEGSVSASRFSRWFSNPSRSGSRSSSLGSTPHEELERLAGLEQAVLSPGQNSGNYFAPIPSEDHAENKVDILEMLQKAKVDLKPLLSSLSANKEKLKESSHSGVVLSVEEVEAGLKGLKVDQQMKNSTPFMAEHLEETLSAASSNRQLKKDGDMTAFNKLVNTMKASGTLPTQPKVSRNVESHLLAPAEIPGQPVSKNILQELLGQPVQRPASSNLLSGLMGSLEATASLLSQRAPSPPMSQVFRTQAASADYLHPRIPSPIGFPSGPQQLLGDPFQGMRKPMSPVSAQMSQLELQQAALEGLALPHDLAVQTAPFYQPGFSKPQVDRTRDGLRNRQQRMSKSPAPMHGGNSSSPAPAASITSMLSPSFTPTSVIRKMYESREKTKEEMAPGMVVPGDGKEDTQKTSEENLLSSNPIPNTDQDSSTTNPKLSTLQRSSCSTPLSQTSRYTKEQDYRPKTAGRKTPTLASPVPGTPFLRPTHQVPLVPHVPIVRPAHQLHPGLVQRLIAQGVHPQHLPSLLQAGVLPPGIDMAPLQGLSGPLLGQPLYPLVSAASHPLLNPRPGTPLHLAVMQQQLQRSVLHPPGSSSQAAAISVQTPQNVPSRSGMPHMHSQLEHRTSQRSSSPVGLAKWFGSDVLQQPLPSMPTKVISVDELEYRQ
binding [1]: binds
binding [2]: binds

Now from value to binder:

binding [1]: binds
binding [2]: binds
B1: hnRNPA0 (protein, UniProt Q9CX86 1-305)
chain: MENSQLCKLFIGGLNVQTSESGLRGHFEAFGTLTDCVVVVNPQTKRSRCFGFVTYSNVEEADAAMAASPHAVDGNTVELKRAVSREDSARPGAHAKVKKLFVGGLKGDVAEGDLIEHFSQFGAVEKAEIIADKQSGKKRGFGFVYFQSHDAADKAAVVKFHPIQGHRVEVKKAVPKEDIHAGGGGARAARGGRGGGRGRGGGGGGGGRDQNGLAKGGGGGGGGYNSYGGYGGYGAYGGGGGGGGSYGGSDYGNGFGGFGSYSQHQSSYGPMKSGGGGGGGGSWGGRSNSGPYRGGYGGGYGGGSF

binding [1]: binds
binding [2]: binds
B3: hnRNPH2 (protein, UniProt P70333 1-449)
chain: MMLSTEGREGFVVKVRGLPWSCSAEEVMRFFSDCKIQNGTSGVRFIYTREGRPSGEAFVELESEDEVKLALKKDRETMGHRYVEVFKSNSVEMDWVLKHTGPNSPDTANDGFVRLRGLPFGCSKEEIVQFFSGLEIVPNGMTLPVDFQGRSTGEAFVQFASQEIAEKALKKHKERIGHRYIEIFKSSRAEVRTHYDPPRKLMTMQRPGPYDRPGAGRGYNSIGRGAGFERMRRGAYGGGYGGYDDYGGYNDGYGFGSDRFGRDLNYCFSGMSDHRYGDGGSSFQSTTGHCVHMRGLPYRATENDIYNFFSPLNPMRVHIEIGPDGRVTGEADVEFATHEDAVAAMAKDKANMQHRYVELFLNSTAGTSGGAYDHSYVELFLNSTAGASGGAYGSQMMGGMGLSNQSSYGGPASQQLSGGYGGGYGGQSSMSGYDQVLQENSSDYQSNLA

From PMC4587738
